The other results are listed elsewhere or left out.
Tests used:
Assay in all cases: log2 fold change, soluble protein after heating vs DMSO (PISA); higher = thermal stabilisation; K562 lysate, 10 uM; active = over 0.2 and 3.5 SD of the protein, either way, in both replicates (recomputed)
lapatinib = compound: CS(=O)(=O)CCNCc1ccc(-c2ccc3ncnc(Nc4ccc(OCc5cccc(F)c5)c(Cl)c4)c3c2)o1 [lapatinib]
Method in brief: (§1)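 Pellets of K562 cells were dounce-homogenised in PBS pH 7.4 with 1 mM MgCl2, and the crude extract was held at 1 mg/mL protein for a 30 min treatment with 10 μM compound. Aliquots were heated for 3 min over 48°C-58°C and pooled before NP-40 was added to 0.5% at 4°C. The supernatant from 21,000xg for 90 min was quantified by TMTpro 16plex LC-MS/MS with channel sums equalised. Values are reported from duplicates as log-two fold change in thermal stability relative to solvent controls.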

The chains behind the UniProt entries cited, without tags or fusion partners. Where a name states a change or a piece, a line headed by the entry shows the natural chain unless it says otherwise.
UniProt P12277: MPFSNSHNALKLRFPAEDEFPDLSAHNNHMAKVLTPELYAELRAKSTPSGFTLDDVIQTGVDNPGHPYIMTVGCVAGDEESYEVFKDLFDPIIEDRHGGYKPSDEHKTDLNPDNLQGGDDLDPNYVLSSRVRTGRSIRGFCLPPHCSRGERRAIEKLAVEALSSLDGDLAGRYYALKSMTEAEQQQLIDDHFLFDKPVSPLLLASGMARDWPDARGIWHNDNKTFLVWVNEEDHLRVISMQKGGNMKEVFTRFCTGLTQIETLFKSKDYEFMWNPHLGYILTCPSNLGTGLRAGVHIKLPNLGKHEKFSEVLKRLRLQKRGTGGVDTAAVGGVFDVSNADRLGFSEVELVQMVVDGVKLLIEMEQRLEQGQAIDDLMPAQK
UniProt Q9NZ45: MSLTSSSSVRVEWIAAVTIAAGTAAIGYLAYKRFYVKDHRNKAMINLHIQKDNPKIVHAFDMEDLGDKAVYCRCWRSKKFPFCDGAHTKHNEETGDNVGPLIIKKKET
UniProt Q96JM3: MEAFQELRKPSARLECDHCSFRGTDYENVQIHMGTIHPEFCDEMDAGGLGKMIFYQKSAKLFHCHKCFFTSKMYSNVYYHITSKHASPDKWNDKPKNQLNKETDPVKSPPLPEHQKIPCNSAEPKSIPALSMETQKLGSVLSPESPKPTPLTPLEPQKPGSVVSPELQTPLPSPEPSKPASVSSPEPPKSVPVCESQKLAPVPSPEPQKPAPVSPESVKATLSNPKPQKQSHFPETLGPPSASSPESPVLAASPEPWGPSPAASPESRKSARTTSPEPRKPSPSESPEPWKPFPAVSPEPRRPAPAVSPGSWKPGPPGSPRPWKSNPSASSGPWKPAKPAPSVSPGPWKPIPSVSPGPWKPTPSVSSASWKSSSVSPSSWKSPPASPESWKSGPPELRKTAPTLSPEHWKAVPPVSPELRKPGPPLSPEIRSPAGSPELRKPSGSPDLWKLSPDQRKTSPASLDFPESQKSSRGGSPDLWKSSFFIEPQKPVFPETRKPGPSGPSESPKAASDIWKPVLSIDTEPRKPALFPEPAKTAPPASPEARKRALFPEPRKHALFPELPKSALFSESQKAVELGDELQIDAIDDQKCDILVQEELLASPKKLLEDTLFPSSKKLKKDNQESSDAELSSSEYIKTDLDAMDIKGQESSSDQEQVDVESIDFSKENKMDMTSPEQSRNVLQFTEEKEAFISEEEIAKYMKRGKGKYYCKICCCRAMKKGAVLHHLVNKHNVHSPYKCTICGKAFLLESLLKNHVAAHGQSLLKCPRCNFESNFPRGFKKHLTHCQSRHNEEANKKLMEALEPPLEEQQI
UniProt Q99653: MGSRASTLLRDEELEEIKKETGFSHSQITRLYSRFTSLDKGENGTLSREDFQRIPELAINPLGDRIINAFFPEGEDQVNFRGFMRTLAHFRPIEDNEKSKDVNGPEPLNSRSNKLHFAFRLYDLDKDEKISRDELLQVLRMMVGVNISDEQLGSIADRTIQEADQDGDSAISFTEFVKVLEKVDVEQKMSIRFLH
UniProt Q9UHD1: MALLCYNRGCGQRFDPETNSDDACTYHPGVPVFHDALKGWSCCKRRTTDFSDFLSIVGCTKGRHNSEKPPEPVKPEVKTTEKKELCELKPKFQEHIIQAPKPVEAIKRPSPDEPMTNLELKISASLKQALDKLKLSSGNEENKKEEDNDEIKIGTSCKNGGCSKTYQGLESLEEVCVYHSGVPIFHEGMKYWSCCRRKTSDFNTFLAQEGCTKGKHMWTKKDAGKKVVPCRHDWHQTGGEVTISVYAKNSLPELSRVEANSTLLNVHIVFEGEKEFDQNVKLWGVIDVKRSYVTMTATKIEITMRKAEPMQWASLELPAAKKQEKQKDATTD
UniProt Q5T1J5: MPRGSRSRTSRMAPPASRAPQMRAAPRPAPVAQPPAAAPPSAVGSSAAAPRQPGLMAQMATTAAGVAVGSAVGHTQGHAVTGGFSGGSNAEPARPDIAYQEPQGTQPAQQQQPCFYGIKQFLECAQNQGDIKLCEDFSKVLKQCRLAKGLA
UniProt Q14839: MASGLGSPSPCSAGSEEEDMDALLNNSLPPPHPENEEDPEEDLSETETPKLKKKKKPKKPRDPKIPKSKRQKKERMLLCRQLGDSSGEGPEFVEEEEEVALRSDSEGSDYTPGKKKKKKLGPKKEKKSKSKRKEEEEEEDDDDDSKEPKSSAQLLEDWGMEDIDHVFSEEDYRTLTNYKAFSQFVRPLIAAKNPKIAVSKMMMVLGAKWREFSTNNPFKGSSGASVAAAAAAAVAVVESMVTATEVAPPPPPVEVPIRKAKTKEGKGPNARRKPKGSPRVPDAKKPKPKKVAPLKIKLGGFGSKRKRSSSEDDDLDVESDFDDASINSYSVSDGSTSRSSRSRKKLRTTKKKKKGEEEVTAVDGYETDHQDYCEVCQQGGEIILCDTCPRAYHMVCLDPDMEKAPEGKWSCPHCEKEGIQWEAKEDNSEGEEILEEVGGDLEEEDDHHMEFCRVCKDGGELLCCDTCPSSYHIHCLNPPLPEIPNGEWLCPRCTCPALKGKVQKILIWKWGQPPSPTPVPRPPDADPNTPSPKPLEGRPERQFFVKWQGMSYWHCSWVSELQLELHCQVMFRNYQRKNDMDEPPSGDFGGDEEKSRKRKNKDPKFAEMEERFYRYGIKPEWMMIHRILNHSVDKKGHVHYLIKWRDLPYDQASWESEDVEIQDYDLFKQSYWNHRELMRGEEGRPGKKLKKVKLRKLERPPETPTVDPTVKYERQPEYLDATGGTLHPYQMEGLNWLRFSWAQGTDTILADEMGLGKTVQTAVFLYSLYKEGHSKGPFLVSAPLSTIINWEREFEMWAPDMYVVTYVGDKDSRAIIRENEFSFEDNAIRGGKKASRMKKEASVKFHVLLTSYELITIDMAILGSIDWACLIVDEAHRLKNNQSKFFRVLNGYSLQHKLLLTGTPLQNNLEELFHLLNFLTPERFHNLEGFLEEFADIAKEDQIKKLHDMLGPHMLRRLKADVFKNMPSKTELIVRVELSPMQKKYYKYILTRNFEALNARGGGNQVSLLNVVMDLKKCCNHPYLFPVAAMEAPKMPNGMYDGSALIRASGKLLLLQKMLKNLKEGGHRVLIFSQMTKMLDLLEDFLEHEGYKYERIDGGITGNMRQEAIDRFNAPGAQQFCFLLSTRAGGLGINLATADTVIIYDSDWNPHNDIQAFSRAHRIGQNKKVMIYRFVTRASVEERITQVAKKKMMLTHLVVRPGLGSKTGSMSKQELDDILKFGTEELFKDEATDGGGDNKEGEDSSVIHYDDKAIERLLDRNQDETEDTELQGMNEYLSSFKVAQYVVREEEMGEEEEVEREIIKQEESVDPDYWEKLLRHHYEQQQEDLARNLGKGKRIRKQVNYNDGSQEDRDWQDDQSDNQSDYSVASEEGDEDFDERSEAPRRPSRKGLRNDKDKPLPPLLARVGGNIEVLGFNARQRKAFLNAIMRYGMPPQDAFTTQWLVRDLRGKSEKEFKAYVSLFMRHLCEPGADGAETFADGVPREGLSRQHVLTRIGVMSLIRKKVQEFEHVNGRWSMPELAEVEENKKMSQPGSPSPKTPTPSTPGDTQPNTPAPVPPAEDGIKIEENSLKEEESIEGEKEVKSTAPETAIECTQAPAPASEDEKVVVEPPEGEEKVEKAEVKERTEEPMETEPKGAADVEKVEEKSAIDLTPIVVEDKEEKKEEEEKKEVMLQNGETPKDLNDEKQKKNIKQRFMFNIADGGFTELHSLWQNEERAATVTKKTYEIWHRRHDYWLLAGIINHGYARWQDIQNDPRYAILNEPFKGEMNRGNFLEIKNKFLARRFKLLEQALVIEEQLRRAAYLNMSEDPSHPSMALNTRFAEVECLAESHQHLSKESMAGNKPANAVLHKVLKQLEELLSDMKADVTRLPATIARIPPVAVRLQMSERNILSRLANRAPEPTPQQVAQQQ
UniProt P26374: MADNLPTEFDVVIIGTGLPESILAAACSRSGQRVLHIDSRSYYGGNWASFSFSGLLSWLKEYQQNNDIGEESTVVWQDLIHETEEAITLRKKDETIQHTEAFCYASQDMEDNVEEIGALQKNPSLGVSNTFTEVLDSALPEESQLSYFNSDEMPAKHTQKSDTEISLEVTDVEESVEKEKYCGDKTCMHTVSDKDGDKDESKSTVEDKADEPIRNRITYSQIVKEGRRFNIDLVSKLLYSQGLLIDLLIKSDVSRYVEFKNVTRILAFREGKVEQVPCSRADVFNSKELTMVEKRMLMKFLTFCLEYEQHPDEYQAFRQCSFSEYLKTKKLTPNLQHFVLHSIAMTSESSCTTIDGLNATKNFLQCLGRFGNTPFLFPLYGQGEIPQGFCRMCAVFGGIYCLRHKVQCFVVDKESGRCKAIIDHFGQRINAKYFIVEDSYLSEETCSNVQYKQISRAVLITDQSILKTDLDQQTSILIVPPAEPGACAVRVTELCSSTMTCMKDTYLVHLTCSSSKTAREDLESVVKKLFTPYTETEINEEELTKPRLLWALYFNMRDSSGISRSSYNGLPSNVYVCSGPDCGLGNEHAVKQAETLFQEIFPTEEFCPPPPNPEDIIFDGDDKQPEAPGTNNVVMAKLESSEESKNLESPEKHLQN
UniProt Q8WYQ3: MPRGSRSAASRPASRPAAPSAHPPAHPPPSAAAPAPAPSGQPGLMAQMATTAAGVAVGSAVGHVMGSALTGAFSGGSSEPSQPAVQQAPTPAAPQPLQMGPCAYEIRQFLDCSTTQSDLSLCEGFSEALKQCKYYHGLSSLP
UniProt Q8WUH1: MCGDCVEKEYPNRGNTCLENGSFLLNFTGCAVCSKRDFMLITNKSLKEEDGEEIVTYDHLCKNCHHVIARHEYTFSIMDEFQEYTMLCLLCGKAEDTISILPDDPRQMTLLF
UniProt P54105: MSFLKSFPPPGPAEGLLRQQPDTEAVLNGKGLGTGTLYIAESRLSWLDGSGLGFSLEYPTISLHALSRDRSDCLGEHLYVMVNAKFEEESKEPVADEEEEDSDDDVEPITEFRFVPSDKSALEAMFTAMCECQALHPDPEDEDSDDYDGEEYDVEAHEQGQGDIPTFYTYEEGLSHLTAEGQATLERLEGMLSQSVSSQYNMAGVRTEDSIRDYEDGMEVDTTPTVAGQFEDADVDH
UniProt Q9BRQ6: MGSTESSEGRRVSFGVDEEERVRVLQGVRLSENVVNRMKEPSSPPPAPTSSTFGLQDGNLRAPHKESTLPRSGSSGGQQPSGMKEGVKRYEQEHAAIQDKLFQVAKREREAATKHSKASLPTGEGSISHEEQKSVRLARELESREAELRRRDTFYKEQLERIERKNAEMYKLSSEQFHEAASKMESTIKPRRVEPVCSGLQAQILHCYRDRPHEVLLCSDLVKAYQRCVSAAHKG
UniProt Q96FZ7: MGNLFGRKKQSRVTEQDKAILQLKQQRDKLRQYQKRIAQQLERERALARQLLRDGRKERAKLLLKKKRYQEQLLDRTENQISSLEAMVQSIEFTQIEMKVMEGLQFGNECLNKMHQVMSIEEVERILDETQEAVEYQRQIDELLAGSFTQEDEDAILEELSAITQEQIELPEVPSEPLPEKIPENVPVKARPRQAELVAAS
UniProt Q9UKJ5: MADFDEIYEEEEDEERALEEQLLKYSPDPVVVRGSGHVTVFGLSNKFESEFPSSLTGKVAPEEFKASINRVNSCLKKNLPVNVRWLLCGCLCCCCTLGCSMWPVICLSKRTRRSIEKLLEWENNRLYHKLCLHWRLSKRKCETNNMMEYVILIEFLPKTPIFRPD
UniProt Q8IWX8: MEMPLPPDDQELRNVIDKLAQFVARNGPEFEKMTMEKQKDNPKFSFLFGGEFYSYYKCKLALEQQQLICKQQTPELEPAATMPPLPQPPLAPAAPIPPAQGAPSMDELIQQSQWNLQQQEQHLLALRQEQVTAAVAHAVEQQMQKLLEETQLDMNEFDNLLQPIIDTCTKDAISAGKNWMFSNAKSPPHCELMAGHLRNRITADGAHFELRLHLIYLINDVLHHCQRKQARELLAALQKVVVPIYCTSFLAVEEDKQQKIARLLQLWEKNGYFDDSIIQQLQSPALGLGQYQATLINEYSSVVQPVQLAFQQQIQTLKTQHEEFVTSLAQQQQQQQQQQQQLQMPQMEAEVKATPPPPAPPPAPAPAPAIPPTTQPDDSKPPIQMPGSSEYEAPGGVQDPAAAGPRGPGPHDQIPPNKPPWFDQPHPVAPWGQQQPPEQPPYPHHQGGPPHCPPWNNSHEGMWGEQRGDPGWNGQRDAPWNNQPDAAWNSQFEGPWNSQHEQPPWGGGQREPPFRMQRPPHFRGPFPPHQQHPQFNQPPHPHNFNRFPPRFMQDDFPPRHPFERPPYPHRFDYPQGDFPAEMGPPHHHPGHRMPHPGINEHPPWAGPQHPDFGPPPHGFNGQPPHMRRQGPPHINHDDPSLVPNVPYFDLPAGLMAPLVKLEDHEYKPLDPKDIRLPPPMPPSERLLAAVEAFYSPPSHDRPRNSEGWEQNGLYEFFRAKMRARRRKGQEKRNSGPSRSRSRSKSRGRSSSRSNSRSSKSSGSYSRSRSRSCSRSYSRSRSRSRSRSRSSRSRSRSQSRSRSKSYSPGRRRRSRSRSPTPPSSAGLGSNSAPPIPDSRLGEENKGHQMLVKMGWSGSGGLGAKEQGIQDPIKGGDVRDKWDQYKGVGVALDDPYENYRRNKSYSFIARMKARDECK

pictilisib = compound: CS(=O)(=O)N1CCN(Cc2cc3nc(-c4cccc5[nH]ncc45)nc(N4CCOCC4)c3s2)CC1 [pictilisib]
Method in brief: as §1

crizotinib = compound: C[C@@H](Oc1cc(-c2cnn(C3CCNCC3)c2)cnc1N)c1c(Cl)ccc(F)c1Cl [crizotinib]
Method in brief: as §1

[1] = compound: C[C@H](C1=CC=C(C=C1)C(=O)NC2=C3C=CNC3=NC=C2)N
Method in brief: as §1

duvelisib = compound: C[C@H](Nc1ncnc2nc[nH]c12)c1cc2cccc(Cl)c2c(=O)n1-c1ccccc1 [duvelisib]
Method in brief: as §1

gandotinib = compound: Cc1cc(Nc2cc(CN3CCOCC3)c3nc(C)c(Cc4ccc(Cl)cc4F)n3n2)n[nH]1 [gandotinib]
Method in brief: as §1

tozasertib = compound: Cc1cc(Nc2cc(N3CCN(C)CC3)nc(Sc3ccc(NC(=O)C4CC4)cc3)n2)n[nH]1 [tozasertib]
Method in brief: as §1

doramapimod = compound: Cc1ccc(-n2nc(C(C)(C)C)cc2NC(=O)Nc2ccc(OCCN3CCOCC3)c3ccccc23)cc1 [doramapimod]
Method in brief: as §1

bafetinib = compound: Cc1ccc(NC(=O)c2ccc(CN3CC[C@H](N(C)C)C3)c(C(F)(F)F)c2)cc1Nc1nccc(-c2cncnc2)n1 [bafetinib]
Method in brief: as §1

[2] = compound: Cc1cccc(CC(=O)N2CCc3c2ccc(-c2cn(C)c4ncnc(N)c24)c3F)n1
Method in brief: as §1

Target | log2 fold change (lapatinib) | log2 fold change (pictilisib) | log2 fold change (crizotinib) | log2 fold change [1] | log2 fold change (duvelisib) | log2 fold change (gandotinib) | log2 fold change (tozasertib) | log2 fold change (doramapimod) | log2 fold change (bafetinib) | log2 fold change [2]
CKB (UniProt P12277) | inactive: -0.003 | inactive: 0.008 | inactive: -0.02 | inactive: 0.068 | inactive: -0.008 | inactive: -0.069 | inactive: 0 | inactive: -0.017 | inactive: -0.025 | inactive: -0.01
CISD1 (UniProt Q9NZ45) | inactive: 0.007 | inactive: 0 | inactive: -0.047 | inactive: -0.106 | inactive: 0.043 | inactive: 0.13 | inactive: -0.012 | inactive: -0.002 | inactive: 0.086 | inactive: 0.064
CHAMP1 (UniProt Q96JM3) | inactive: 0.026 | inactive: -0.038 | inactive: 0.023 | inactive: 0.023 | inactive: -0.004 | inactive: -0.008 | inactive: -0.031 | inactive: -0.012 | inactive: 0.042 | inactive: -0.07
CHP1 (UniProt Q99653) | inactive: -0.008 | inactive: -0.058 | inactive: -0.021 | inactive: -0.159 | inactive: 0.025 | inactive: 0.105 | inactive: 0 | inactive: -0.014 | inactive: -0.008 | inactive: 0.056
CINP isoform 3 (UniProt Q9BW66) | inactive: -0.059 | inactive: 0.011 | inactive: -0.028 | active: -0.325 | inactive: 0.062 | inactive: 0.018 | inactive: 0.056 | inactive: 0.036 | inactive: -0.059 | inactive: 0.208
CHORDC1 (UniProt Q9UHD1) | inactive: -0.001 | inactive: 0.009 | inactive: 0.022 | inactive: 0.18 | inactive: 0.006 | inactive: -0.011 | inactive: 0.022 | inactive: -0.028 | inactive: 0.022 | inactive: -0.031
CHCHD2P9 (UniProt Q5T1J5) | inactive: 0.011 | inactive: -0.026 | inactive: 0.092 | inactive: 0 | inactive: 0.073 | inactive: 0.012 | inactive: 0.028 | inactive: -0.005 | inactive: 0.158 | inactive: -0.09
CHD4 isoform 2 (UniProt Q14839) | inactive: 0.003 | inactive: -0.004 | inactive: -0.007 | inactive: -0.05 | inactive: -0.038 | inactive: 0.005 | inactive: 0.011 | inactive: 0.021 | inactive: -0.05 | inactive: 0.05
CHML (UniProt P26374) | inactive: -0.006 | inactive: -0.003 | inactive: 0.022 | inactive: -0.012 | inactive: 0.006 | inactive: 0.013 | inactive: -0.004 | inactive: -0.025 | inactive: 0.094 | inactive: 0.004
CHCHD10 (UniProt Q8WYQ3) | inactive: 0.032 | inactive: -0.106 | – | inactive: 0.133 | inactive: 0.054 | inactive: -0.131 | inactive: 0.053 | – | inactive: 0.162 | inactive: -0.068
CHURC1 isoform 2 (UniProt Q8WUH1) | inactive: 0.012 | inactive: 0.043 | inactive: -0.047 | inactive: 0.026 | inactive: 0.049 | inactive: -0.014 | inactive: -0.032 | inactive: -0.01 | inactive: -0.019 | inactive: -0.001
CKMT1A (UniProt P12532) | inactive: 0.007 | inactive: 0.042 | inactive: 0.006 | inactive: -0.021 | inactive: 0.041 | inactive: 0.056 | inactive: 0.003 | inactive: -0.02 | inactive: 0.116 | inactive: 0.004
CLNS1A (UniProt P54105) | inactive: -0.015 | – | inactive: 0.033 | inactive: -0.017 | inactive: -0.003 | inactive: 0.056 | inactive: -0.022 | inactive: -0.038 | inactive: -0.012 | inactive: -0.02
CHSY1 (UniProt Q86X52) | inactive: 0.173 | inactive: -0.015 | – | inactive: -0.069 | inactive: 0.045 | inactive: 0.164 | – | – | inactive: -0.209 | inactive: 0.187
CHCHD6 (UniProt Q9BRQ6) | inactive: -0.168 | inactive: -0.017 | inactive: -0.01 | inactive: -0.093 | inactive: 0.015 | inactive: 0.062 | inactive: -0.055 | inactive: 0.003 | inactive: 0.074 | inactive: 0.064
CNBP (UniProt P62633) | inactive: 0.048 | inactive: -0.029 | – | – | – | – | – | – | inactive: 0.005 | –

Target | log2 fold change (lapatinib) | log2 fold change (pictilisib) | log2 fold change (crizotinib) | log2 fold change [1] | log2 fold change (duvelisib) | log2 fold change (gandotinib) | log2 fold change (tozasertib) | log2 fold change (doramapimod) | log2 fold change (bafetinib) | log2 fold change [2]
CLINT1 isoform 3 (UniProt Q14677) | inactive: 0.042 | – | inactive: 0.142 | inactive: -0.022 | inactive: -0.044 | inactive: 0.187 | inactive: -0.016 | inactive: 0.167 | inactive: 0.02 | inactive: -0.063
CLPTM1L (UniProt Q96KA5) | inactive: -0.095 | – | inactive: -0.021 | inactive: -0.092 | inactive: -0.049 | active: -0.233 | inactive: 0.004 | inactive: -0.098 | inactive: -0.064 | inactive: 0.137
CHMP6 (UniProt Q96FZ7) | inactive: 0.022 | inactive: -0.104 | inactive: -0.048 | inactive: -0.028 | inactive: -0.016 | inactive: 0.04 | inactive: 0.04 | inactive: 0.135 | inactive: -0.007 | inactive: 0.038
CHST2 (UniProt Q9Y4C5) | inactive: 0.054 | inactive: -0.114 | inactive: -0.118 | inactive: -0.106 | inactive: -0.106 | inactive: 0.098 | – | inactive: 0.13 | inactive: 0.079 | inactive: 0.371
CHIC2 (UniProt Q9UKJ5) | inactive: -0.395 | inactive: -0.084 | – | inactive: -0.041 | inactive: 0.056 | inactive: -0.024 | inactive: -0.028 | – | inactive: -0.132 | inactive: 0.05
CLTB isoform 2 (UniProt P09497) | inactive: -0.017 | – | inactive: 0.022 | inactive: -0.01 | inactive: -0.02 | inactive: 0.023 | inactive: 0.021 | inactive: 0.015 | inactive: 0.035 | inactive: -0.036
CLASP2 isoform 3 (UniProt O75122) | inactive: -0.008 | – | inactive: -0.018 | inactive: -0.172 | inactive: -0.015 | inactive: 0.077 | inactive: 0.015 | inactive: 0.041 | inactive: -0.021 | active: 0.247
CIAO2B (UniProt Q9Y3D0) | inactive: 0.014 | inactive: -0.136 | inactive: -0.075 | – | inactive: 0.004 | – | inactive: 0.007 | inactive: -0.178 | inactive: -0.132 | –
CLSPN (UniProt Q9HAW4) | inactive: 0.025 | – | inactive: -0.001 | inactive: -0.023 | inactive: -0.004 | inactive: 0.146 | inactive: -0.037 | inactive: 0.115 | inactive: -0.032 | inactive: -0.001
CISD2 (UniProt Q8N5K1) | inactive: -0.036 | inactive: -0.036 | inactive: 0.022 | inactive: -0.032 | inactive: -0.01 | inactive: 0.061 | inactive: 0.01 | inactive: -0.026 | inactive: 0.025 | inactive: 0.021
CHMP4A (UniProt H0YIN6) | inactive: -0.078 | inactive: -0.071 | inactive: -0.211 | inactive: -0.091 | inactive: 0 | inactive: 0.451 | – | inactive: -0.059 | inactive: -0.098 | inactive: 0.325
CMSS1 (UniProt Q9BQ75) | inactive: 0.012 | inactive: 0.016 | inactive: -0.021 | inactive: 0.176 | inactive: -0.001 | inactive: -0.086 | inactive: 0.009 | inactive: 0.015 | inactive: -0.026 | inactive: -0.015
CHERP (UniProt Q8IWX8) | inactive: 0.034 | inactive: -0.008 | inactive: 0.006 | inactive: 0.02 | inactive: 0 | inactive: -0.026 | inactive: 0.006 | inactive: 0.024 | inactive: 0.001 | inactive: 0.005
CIRBP (UniProt Q14011) | inactive: 0.006 | inactive: -0.018 | inactive: 0 | inactive: 0.006 | inactive: 0.018 | inactive: 0.041 | inactive: -0.044 | inactive: -0.025 | inactive: -0.023 | inactive: -0.05
CLDND1 (UniProt Q9NY35) | inactive: 0.001 | – | inactive: 0.063 | inactive: 0.003 | inactive: 0.07 | inactive: 0.009 | inactive: -0.006 | inactive: 0.009 | inactive: 0.031 | inactive: 0.011

In another format: results already given.
Target	log2 fold change (lapatinib)	log2 fold change (pictilisib)	log2 fold change (crizotinib)	log2 fold change [1]	log2 fold change (duvelisib)	log2 fold change (gandotinib)	log2 fold change (tozasertib)	log2 fold change (doramapimod)	log2 fold change (bafetinib)	log2 fold change [2]
CIAO2B (UniProt Q9Y3D0)	inactive: 0.014	inactive: -0.136	inactive: -0.075	–	inactive: 0.004	–	inactive: 0.007	inactive: -0.178	inactive: -0.132	–
CLSPN (UniProt Q9HAW4)	inactive: 0.025	–	inactive: -0.001	inactive: -0.023	inactive: -0.004	inactive: 0.146	inactive: -0.037	inactive: 0.115	inactive: -0.032	inactive: -0.001

Source: the supplement of paper PMC10849652
